# The supplement of paper PMC4604168 (melanoma cell lines)
# The other results are listed elsewhere or left out. Many values rest on one well or one pass, so single values are uncertain.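 Imaging used 1,536-well plates; nuclei positive for cleaved PARP by antibody were divided by total DNA-stained nuclei to yield the apoptosis fraction. Doses for screening kept most cells viable, and cell lines differ markedly in resting and induced cleaved-PARP levels.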
# Tested on: COLO792
# Test: cleaved PARP positive nuclei fraction relative to DMSO control; melanoma cells; higher = more apoptosis
# Settings: library dose: low library concentration; 72 h
row,Structure (SMILES),cleaved PARP positive nuclei fraction
1,"C[C@@H](Oc1cc(-c2cnn(C3CCNCC3)c2)cnc1N)c1c(Cl)ccc(F)c1Cl [Crizotinib] + Nc1ccn([C@@H]2O[C@H](CO)[C@@H](O)C2(F)F)c(=O)n1 [gemcitabine] (first compound 0.2 µM, partner dose 0.0004 µM)",148%
2,"O=C(O)[C@@H]1[O][Sb](=[O])([O][Sb]2(=[O])[O][C@H]([C@H](O)CO)[C@H](O)[C@H](C(=O)O)[O]2)[O][C@H]([C@H](O)CO)[C@@H]1O (some centres undefined) [stibogluconate] + COc1ccc(Cl)c(Nc2nc3ccccc3nc2NS(=O)(=O)c2cccc(NC(=O)C(C)(C)N)c2)c1 [XL147] (first compound 2 µM, partner dose 0.8 µM)",129%
3,"Cc1cc(Nc2cc(N3CCN(C)CC3)nc(/C=C/c3ccccc3)n2)n[nH]1 + C#Cc1cccc(Nc2ncnc3cc(OCCOC)c(OCCOC)cc23)c1 [erlotinib] (first compound 0.04 µM, partner dose 0.8 µM)",123%
4,"Nc1ccn([C@@H]2O[C@H](CO)[C@@H](O)C2(F)F)c(=O)n1 [gemcitabine] + COc1ccc(Cl)c(Nc2nc3ccccc3nc2NS(=O)(=O)c2cccc(NC(=O)C(C)(C)N)c2)c1 [XL147] (first compound 0.0004 µM, partner dose 0.8 µM)",34.2%
5,"Cc1cc(Nc2cc(N3CCN(C)CC3)nc(/C=C/c3ccccc3)n2)n[nH]1 + CNC(=O)c1cc(Oc2ccc(NC(=O)Nc3ccc(Cl)c(C(F)(F)F)c3)cc2)ccn1 [sorafenib] (first compound 0.04 µM, partner dose 0.4 µM)",83.6%
6,"O=C(O)c1ccc2c(c1)nc(Nc1cccc(Cl)c1)c1ccncc12 + Nc1nc(F)nc2c1ncn2[C@@H]1O[C@H](CO)[C@@H](O)[C@@H]1O [fludarabine] (first compound 0.4 µM, partner dose 0.2 µM)",193%
7,"O=C(O)c1ccc2c(c1)nc(Nc1cccc(Cl)c1)c1ccncc12 + Nc1cccc2c1CN(C1CCC(=O)NC1=O)C2=O [lenalidomide] (first compound 0.4 µM, partner dose 1 µM)",168%
8,"Nc1ncn([C@H]2C[C@H](O)[C@@H](CO)O2)c(=O)n1 [decitabine] + OCc1c[nH]c2ccccc12 [Indole-3-carbinol] (first compound 0.1 µM, partner dose 0.8 µM)",65.9%
9,"CC(C)C[C@H](NC(=O)[C@H](Cc1ccccc1)NC(=O)c1cnccn1)B(O)O [Bortezomib] + Cn1c(Nc2ccc(C(F)(F)F)cc2)nc2cc(Oc3ccnc(-c4ncc(C(F)(F)F)[nH]4)c3)ccc21 [CHIR265] (first compound 0.001 µM, partner dose 0.08 µM)",93.9%
10,"Cn1c(=O)n(-c2ccc(C(C)(C)C#N)cc2)c2c3cc(-c4cnc5ccccc5c4)ccc3ncc21 + C[C@]1(c2nc3c(C(N)=O)cccc3[nH]2)CCCN1 [Veliparib] (first compound 0.004 µM, partner dose 1.4 µM)",64.3%
11,"CS(=O)(=O)CCNCc1ccc(-c2ccc3ncnc(Nc4ccc(OCc5cccc(F)c5)c(Cl)c4)c3c2)o1 [lapatinib] + COCC[n+]1c2c(n(Cc3cnccn3)c1C)C(=O)c1ccccc1C2=O [YM155] (first compound 0.8 µM, partner dose 0.0004 µM)",146%
12,"CCCS(=O)(=O)Nc1ccc(F)c(C(=O)c2c[nH]c3ncc(Cl)cc23)c1F + Nc1nc(F)nc2c1ncn2[C@@H]1O[C@H](CO)[C@@H](O)[C@@H]1O [fludarabine] (first compound 0.08 µM, partner dose 0.2 µM)",67.7%
13,"Cc1cc(Nc2cc(N3CCN(C)CC3)nc(/C=C/c3ccccc3)n2)n[nH]1 + CO[C@H]1C[C@@H]2CC[C@@H](C)[C@@](O)(O2)C(=O)C(=O)N2CCCC[C@H]2C(=O)O[C@H]([C@H](C)C[C@@H]2CC[C@@H](OCCO)[C@H](OC)C2)CC(=O)[C@H](C)/C=C(\C)[C@@H](O)[C@@H](OC)C(=O)[C@H](C)C[C@H](C)/C=C/C=C/C=C/1C [everolimus] (first compound 0.04 µM, partner dose 0.02 µM)",84.8%
14,"CCCS(=O)(=O)Nc1ccc(F)c(C(=O)c2c[nH]c3ncc(Cl)cc23)c1F + Nc1ncn([C@H]2C[C@H](O)[C@@H](CO)O2)c(=O)n1 [decitabine] (first compound 0.08 µM, partner dose 0.1 µM)",54.2%

# Quoted at random: 2 entries already listed
row,Structure (SMILES),cleaved PARP positive nuclei fraction
12,"CCCS(=O)(=O)Nc1ccc(F)c(C(=O)c2c[nH]c3ncc(Cl)cc23)c1F + Nc1nc(F)nc2c1ncn2[C@@H]1O[C@H](CO)[C@@H](O)[C@@H]1O [fludarabine] (first compound 0.08 µM, partner dose 0.2 µM)",67.7%
14,"CCCS(=O)(=O)Nc1ccc(F)c(C(=O)c2c[nH]c3ncc(Cl)cc23)c1F + Nc1ncn([C@H]2C[C@H](O)[C@@H](CO)O2)c(=O)n1 [decitabine] (first compound 0.08 µM, partner dose 0.1 µM)",54.2%
